[ ]: non-standard residue; d: D form. The star is where a group is joined. His(Trt) = N[C@@H](Cc1cn(C(c2ccccc2)(c2ccccc2)c2ccccc2)cn1)C(=O)O; Pmc = Cc1c(C)c(S(=O)(=O)*)c(C)c2c1OC(C)(C)CC2; Fmoc = O=C(OCC1c2ccccc2-c2ccccc21)*; Nle = CCCC[C@H](N)C(=O)O; Boc = CC(C)(C)OC(=O)*; OtBu = CC(C)(C)O*; tBu = CC(C)(C)*
Assay: general procedure: hybrid (solid and solution phase) peptide synthesis; Sasrin-resin (2-methoxy-4-alkoxybenzyl alcohol copolystyrene 1% divinylbenzene); XAL-BHA for Fragment I; HBTU/HOBt/DIPEA; BOP/HOBt/DIPEA
[1] = coupling step, analytical HPLC (210 nm), capillary electrophoresis for final product

## Ac-[His(Trt)]S(tBu)D(OtBu)AVFT(tBu)E(OtBu)-OH
Whole synthesis, 210 nm
  crude HPLC purity: 95%

## Fmoc-AK(Boc)KY(tBu)LNDLK(Boc)K(Boc)GGT(tBu)-NH2
Coupling step
  step yield: 100%
[1]
  crude HPLC purity: about70%

## Fmoc-LK(Boc)K(Boc)GGT(tBu)-NH2
Whole synthesis, 210 nm
  crude HPLC purity: 94.5%

## Fmoc-NY(tBu)T(tBu)K(Boc)LR(Pmc)K(Boc)Q[Nle]A-OH
Whole synthesis, 210 nm
  crude HPLC purity: 91%

## Fmoc-NY(tBu)T(tBu)K(Boc)LR(Pmc)K(Boc)Q[Nle]AAK(Boc)KY(tBu)LNDLK(Boc)K(Boc)GGT(tBu)-NH2
Coupling step
  step yield: about 79%
[1]
  crude HPLC purity: about 69%

## cyclo(Lys^21 --Asp^25)-Fmoc-Ala^19 --Lys(Boc)^20 --Lys^21 --Tyr(tBu)^22 --Leu^23 --Asn^24 --Asp^25 k--OH
Late stage modification step
  step yield: 91.1%
Whole synthesis, analytical HPLC (210 nm), capillary electrophoresis for final product
  final HPLC purity: >97%
Whole synthesis, overall, on starting resin
  isolated yield: 33.7%

Reference: US6080837 (dated 2000)
